Source: the supplement of paper PMC6078165
± gives the standard deviation of the averaged measurements. Values are relative to the signal before dosing, not to a vehicle control; the signal also falls without drug.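 The cancer cells are triple-negative breast cancer lines of basal-like or mesenchymal-like type, grown without fibroblasts. A drop in red signal reflects loss of mitochondrial integrity, a stand-in for apoptotic death.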

How the values were obtained:
[1] = tested on: HCC1143; experiment: relative JC-1 red fluorescence (viability) vs pre-drug, monoculture (fraction); higher = more viable cancer cells; settings: coculture fibroblast: none (monoculture)
Description: (§1)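 JC-1 labelled TNBC cells grown in monoculture (density kept equal with unlabelled cancer cells) in 384-well plates in FluoroBrite medium, treated with one of 42 anticancer drugs at 0.1, 1, 10 or 100 uM. JC-1 red fluorescence (mitochondrial integrity, surrogate of apoptotic death) was read by plate reader every 8 h for 72 h. Values are normalised to each well's pre-drug value, with background from alamethicin. The stock of one drug was tenfold lower, so its dose labels may be too high. Monoculture values are repeated alongside each fibroblast plate and are averaged here.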

[2] = tested on: MDAMB436; experiment: as above; settings: coculture fibroblast: none (monoculture)
Description: as §1

CN(Cc1cnc2nc(N)nc(N)c2n1)c1ccc(C(=O)N[C@@H](CCC(=O)O)C(=O)O)cc1 [Methotrexate]
relative JC-1 red fluorescence
Settings	8 h	16 h	24 h	32 h	40 h	48 h	56 h	64 h	72 h
[1], 0.1 µM	0.8824 ± 0.0065	0.807 ± 0.0083	0.721 ± 0.011	0.6697 ± 0.0016	0.6182 ± 0.0052	0.5779 ± 0.0022	0.544 ± 0.0073	0.524 ± 0.015	0.499 ± 0.015
[1], 1 µM	0.878 ± 0.018	0.796 ± 0.024	0.707 ± 0.019	0.642 ± 0.022	0.583 ± 0.018	0.532 ± 0.019	0.494 ± 0.019	0.46 ± 0.023	0.437 ± 0.025
[1], 10 µM	0.896 ± 0.012	0.8 ± 0.026	0.74 ± 0.034	0.686 ± 0.038	0.625 ± 0.055	0.582 ± 0.048	0.551 ± 0.05	0.523 ± 0.051	0.512 ± 0.051
[1], 100 µM	0.8515 ± 0.0012	0.7491 ± 0.0042	0.68175 ± 0.00023	0.626 ± 0.0087	0.563 ± 0.0078	0.516 ± 0.0074	0.479 ± 0.0051	0.446 ± 0.0064	0.412 ± 0.01
[2], 0.1 µM	0.8689 ± 0.0011	0.829 ± 0.046	0.817 ± 0.034	0.783 ± 0.047	0.79 ± 0.053	0.807 ± 0.059	0.818 ± 0.053	0.839 ± 0.05	0.848 ± 0.042
[2], 1 µM	0.86 ± 0.025	0.7475 ± 0.0053	0.786 ± 0.014	0.747 ± 0.02	0.74 ± 0.037	0.743 ± 0.035	0.74 ± 0.038	0.747 ± 0.046	0.762 ± 0.046
[2], 10 µM	0.912 ± 0.011	0.9169 ± 0.0019	0.941 ± 0.057	0.928 ± 0.068	0.817 ± 0.057	0.794 ± 0.096	0.826 ± 0.073	0.845 ± 0.069	0.837 ± 0.098
[2], 100 µM	0.855 ± 0.02	0.7158 ± 0.0037	0.7312 ± 0.00092	0.6759 ± 0.0053	0.656 ± 0.016	0.649 ± 0.013	0.634 ± 0.014	0.627 ± 0.013	0.628 ± 0.011

O=C(O)CCCc1ccc(N(CCCl)CCCl)cc1 [Chlorambucil]
relative JC-1 red fluorescence
Settings	8 h	16 h	24 h	32 h	40 h	48 h	56 h	64 h	72 h
[1], 0.1 µM	0.9 ± 0.081	0.738 ± 0.0089	0.697 ± 0.021	0.672 ± 0.041	0.747 ± 0.17	0.726 ± 0.18	0.689 ± 0.16	0.638 ± 0.12	0.608 ± 0.097
[1], 1 µM	0.892 ± 0.017	0.811 ± 0.017	0.748 ± 0.027	0.704 ± 0.031	0.668 ± 0.024	0.642 ± 0.027	0.613 ± 0.026	0.586 ± 0.037	0.57 ± 0.037
[1], 10 µM	0.8729 ± 0.0042	0.77 ± 0.034	0.708 ± 0.025	0.669 ± 0.025	0.625 ± 0.022	0.598 ± 0.016	0.566 ± 0.013	0.5433 ± 0.0027	0.52611 ± 0.0005
[1], 100 µM	0.913 ± 0.016	0.831 ± 0.024	0.761 ± 0.024	0.706 ± 0.024	0.661 ± 0.031	0.604 ± 0.03	0.555 ± 0.029	0.522 ± 0.028	0.5 ± 0.025
[2], 0.1 µM	0.8458 ± 0.0037	0.871 ± 0.016	0.855 ± 0.1	0.932 ± 0.039	0.95 ± 0.051	0.823 ± 0.027	0.71796 ± 0.00049	0.817 ± 0.078	0.864 ± 0.029
[2], 1 µM	0.854 ± 0.0087	0.7592 ± 0.0025	0.715 ± 0.016	0.654 ± 0.023	0.643 ± 0.029	0.632 ± 0.028	0.62 ± 0.039	0.615 ± 0.046	0.626 ± 0.05
[2], 10 µM	0.898 ± 0.015	0.805 ± 0.014	0.834 ± 0.021	0.803 ± 0.032	0.804 ± 0.033	0.812 ± 0.03	0.822 ± 0.041	0.836 ± 0.036	0.855 ± 0.034
[2], 100 µM	0.8492 ± 0.0081	0.754 ± 0.021	0.718 ± 0.033	0.66 ± 0.035	0.634 ± 0.041	0.614 ± 0.046	0.59 ± 0.049	0.573 ± 0.057	0.552 ± 0.05
